PubChem BioAssay AID652243, Drosophila RNAi Screening Center – 2013
The deposit covers about 24,000 reagents; shown is a random part of those with a known target gene and a result. In the full data, 246 (1%) got an active call. 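Plates not normalised; calls are printed but the firefly/Renilla ratio behind them is not deposited; fold cut for lowering reported inconsistently.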 Raw values vary from plate to plate and are shown uncorrected. The numbers tell different reagents against one gene apart. Names joined by + are all predicted targets of the reagent. No sequences are given here. The record does not give: the amount of reagent.

- Test: 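Knock-downs that decrease or increase androgen receptor reporter signal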 (primary screen)
- Cells: Drosophila S2R+ cells
- Knock-down reagent: long dsRNA against Drosophila genes
- Time to read-out: 72 h (48 h, then 24 h hormone)
- Conditions: synthetic androgen R1881 at 10 nM for 24 h
- Measurement: 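Firefly light from an androgen-responsive reporter and Renilla control light per well, raw and unnormalised, for each of two replicates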
- Scale: firefly reporter light: higher = more light from androgen-responsive reporter; Renilla control light: higher = more constitutive control signal (cell number, transfection)
- Hit rule: 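Hit when the log firefly-to-Renilla ratio dropped or increased by a fixed fold versus the mean of GFP or LacZ controls across duplicate plates; lowering cut given as 1.5 and as 3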
- Calls: active = hit: reporter lowered or raised; inactive = no hit

target gene | dsRNA no. | firefly reporter light, replicate 1 | firefly reporter light, replicate 2 | Renilla control light, replicate 1 | Renilla control light, replicate 2 | outcome
deltaTry + CG30031 + CG30025 + 1 more | 1 | 2.39e5 | 2.45e5 | 4.79e5 | 6.98e5 | inactive
Upf1 (GeneID 32153) | 1 | 97456 | 97121 | 5.97e5 | 6.43e5 | inactive
Rel (GeneID 41087) | 1 | 87354 | 50618 | 4.78e5 | 4.59e5 | inactive
CG4669 (GeneID 38608) | 1 | 1.35e6 | 1.06e6 | 7.88e5 | 8.59e5 | inactive
CG31674 (GeneID 318878) | 1 | 1.04e5 | 72416 | 1.01e6 | 8.12e5 | inactive
CG31674 (GeneID 318878) | 2 | 4.73e5 | 2.13e5 | 9.21e5 | 2.94e5 | inactive
CG8300 (GeneID 31658) | 1 | 7.39e5 | 8.35e5 | 1.79e6 | 1.72e6 | inactive
CG8300 (GeneID 31658) | 2 | 7.25e5 | 4.12e5 | 1.33e6 | 1.17e6 | inactive
CG11155 (GeneID 43822) | 1 | 1.04e5 | 98680 | 7.59e5 | 7.31e5 | inactive
CG11155 (GeneID 43822) | 2 | 4.31e5 | 4.06e5 | 8.75e5 | 8.75e5 | inactive
HisT (GeneID 35697) | 1 | 28005 | 1.28e5 | 72672 | 1.89e5 | inactive
HisT (GeneID 35697) | 2 | 6.84e5 | 9.41e5 | 1.01e6 | 1.25e6 | inactive
dgt5 (GeneID 36364) | 1 | 9.10e5 | 6.92e5 | 1.24e6 | 1.31e6 | inactive
dgt5 (GeneID 36364) | 2 | 3.13e5 | 3.89e5 | 1.08e6 | 1.08e6 | inactive
Gr59a (GeneID 117485) | 1 | 6.68e5 | 7.70e5 | 2.69e6 | 2.90e6 | inactive
CG4042 (GeneID 40291) | 1 | 3.00e5 | 1.88e5 | 3.04e6 | 2.23e6 | inactive
CG4042 (GeneID 40291) | 2 | 2.74e5 | 3.85e5 | 1.26e6 | 1.02e6 | inactive
CG9003 (GeneID 36244) | 1 | 2.15e5 | 1.89e5 | 1.64e6 | 1.92e6 | inactive
feo (GeneID 32015) | 1 | 3.44e5 | 2.89e5 | 2.88e6 | 3.45e6 | inactive
feo (GeneID 32015) | 2 | 4.49e5 | 3.68e5 | 6.33e5 | 5.45e5 | inactive
Bdbt (GeneID 42503) | 1 | 1.62e5 | 1.95e5 | 3.32e6 | 4.03e6 | inactive
CG31055 (GeneID 318574) | 1 | 2.12e5 | 1.77e5 | 3.46e5 | 4.50e5 | inactive
PCID2 (GeneID 39306) | 1 | 7.52e5 | 6.83e5 | 1.29e6 | 1.61e6 | inactive
PCID2 (GeneID 39306) | 2 | 8.89e5 | 5.97e5 | 1.66e6 | 1.32e6 | inactive
Clk (GeneID 38872) | 1 | 1.02e5 | 1.05e5 | 1.64e6 | 1.36e6 | inactive
CG31687 + Cdc23 | 1 | 4.80e5 | 6.85e5 | 1.08e6 | 1.14e6 | inactive
CG32751 (GeneID 318189) | 1 | 4.10e5 | 4.15e5 | 6.18e5 | 1.13e6 | inactive
CG9628 (GeneID 39593) | 1 | 8.99e5 | 6.38e5 | 2.08e6 | 1.81e6 | inactive
CG9628 (GeneID 39593) | 2 | 3.91e5 | 3.22e5 | 5.75e5 | 6.04e5 | inactive
CG9948 (GeneID 38757) | 1 | 7.01e5 | 6.11e5 | 1.23e6 | 1.44e6 | inactive
Diap1 (GeneID 39753) | 1 | 103 | – | – | – | inactive
CG3288 (GeneID 40307) | 1 | 2.56e5 | 1.85e5 | 2.72e6 | 2.25e6 | inactive

Next part, starting with the last 2 of the part before.
target gene | dsRNA no. | firefly reporter light, replicate 1 | firefly reporter light, replicate 2 | Renilla control light, replicate 1 | Renilla control light, replicate 2 | outcome
Diap1 (GeneID 39753) | 1 | 103 | – | – | – | inactive
CG3288 (GeneID 40307) | 1 | 2.56e5 | 1.85e5 | 2.72e6 | 2.25e6 | inactive
beta4GalNAcTA (GeneID 36585) | 1 | 4.37e5 | 3.83e5 | 3.06e6 | 4.16e6 | inactive
Burs (GeneID 42560) | 1 | 2.51e5 | 2.40e5 | 2.68e6 | 2.96e6 | inactive
CG31861 (GeneID 318988) | 1 | 6.62e5 | 5.88e5 | 2.92e6 | 2.42e6 | inactive
CG31861 (GeneID 318988) | 2 | 6.99e5 | 3.89e5 | 1.06e6 | 8.69e5 | inactive
PPO1 (GeneID 37044) | 1 | 1.54e6 | 6.89e5 | 1.38e6 | 6.76e5 | inactive
Prx6c + CG12896 + Prx6b | 1 | 2.82e5 | 2.85e5 | 1.88e6 | 2.02e6 | inactive
Prx6c + CG12896 + Prx6b | 2 | 6.60e5 | 6.36e5 | 2.25e6 | 1.99e6 | inactive
Oseg1 (GeneID 38957) | 1 | 1.10e6 | 8.93e5 | 8.00e5 | 7.51e5 | inactive
RIC-3 (GeneID 37384) | 1 | 1.01e6 | 8.06e5 | 2.49e6 | 2.23e6 | inactive
RIC-3 (GeneID 37384) | 2 | 2.46e5 | 3.63e5 | 1.96e6 | 2.27e6 | inactive
mxt (GeneID 33686) | 1 | 9.13e5 | 8.56e5 | 4.45e5 | 4.86e5 | inactive
Hex-t2 (GeneID 43191) | 1 | 3.12e5 | 6.51e5 | 2.84e5 | 3.51e5 | inactive
Hex-t2 (GeneID 43191) | 2 | 7.85e5 | 7.93e5 | 1.08e6 | 1.74e6 | inactive
capt (GeneID 45233) | 1 | 96410 | 1.01e5 | 7.18e5 | 7.82e5 | inactive
capt (GeneID 45233) | 2 | 1.39e5 | 1.22e5 | 6.38e5 | 8.49e5 | inactive
capt (GeneID 45233) | 3 | 2.93e5 | 2.72e5 | 7.18e5 | 7.02e5 | inactive
capt (GeneID 45233) | 4 | 3.95e5 | 2.82e5 | 9.72e5 | 9.69e5 | inactive
Acbp2 (GeneID 38784) | 1 | 2.90e5 | 2.44e5 | 4.02e6 | 3.42e6 | inactive
Acbp2 (GeneID 38784) | 2 | 4.69e5 | 2.29e5 | 3.28e5 | 3.38e5 | inactive
NimB2 (GeneID 260645) | 1 | 8.61e5 | 6.24e5 | 2.02e6 | 1.87e6 | inactive
CG13502 (GeneID 37518) | 1 | 2.12e5 | 2.36e5 | 1.50e6 | 1.90e6 | inactive
CG13502 (GeneID 37518) | 2 | 3.24e5 | 5.04e5 | 7.13e5 | 7.44e5 | inactive
CG31933 (GeneID 326176) | 1 | 1.18e5 | 1.30e5 | 8.92e5 | 1.30e6 | inactive
CG6766 (GeneID 34619) | 1 | 5.45e5 | 3.92e5 | 2.91e6 | 2.55e6 | inactive
Sirt7 (GeneID 43433) | 1 | 61143 | 76905 | 6.66e5 | 4.19e5 | inactive
Sirt7 (GeneID 43433) | 2 | 4.75e5 | 4.41e5 | 8.17e5 | 8.30e5 | inactive
CG31875 (GeneID 318996) | 1 | 6.51e5 | 5.49e5 | 3.52e5 | 4.22e5 | inactive
CG4619 (GeneID 34321) | 1 | 8.33e5 | 7.63e5 | 2.23e6 | 2.54e6 | inactive
CG42507 + Trl | 1 | 1.76e5 | 2.80e5 | 5.36e5 | 5.77e5 | inactive
CG42507 + Trl | 2 | 3.85e5 | 2.14e5 | 7.06e5 | 4.19e5 | inactive
CG13060 (GeneID 39802) | 1 | 2.40e5 | 3.09e5 | 2.97e6 | 3.05e6 | inactive
CG13060 (GeneID 39802) | 2 | 9.53e5 | 1.04e6 | 1.68e6 | 1.69e6 | inactive
CG15515 (GeneID 43538) | 1 | 1.79e5 | 2.21e5 | 1.93e6 | 2.50e6 | inactive
CG3640 (GeneID 37942) | 1 | 2.67e5 | 3.07e5 | 2.20e6 | 2.22e6 | inactive
5-HT7 (GeneID 43669) | 1 | 52837 | 1.31e5 | 6.13e5 | 5.99e5 | inactive
5-HT7 (GeneID 43669) | 2 | 9.47e5 | 8.49e5 | 1.09e6 | 8.82e5 | inactive
CG13994 (GeneID 33853) | 1 | 2.44e5 | 1.82e5 | 3.04e6 | 1.56e6 | inactive
Prosbeta7 (GeneID 40639) | 1 | 24677 | 14650 | 4.07e5 | 2.79e5 | inactive
Dro (GeneID 36635) | 1 | 1.32e5 | 2.09e5 | 2.59e6 | 2.59e6 | inactive
Dro (GeneID 36635) | 2 | 9.55e5 | 1.08e6 | 2.28e6 | 1.93e6 | inactive
CG4716 (GeneID 36471) | 1 | 5.65e5 | 6.68e5 | 6.53e5 | 8.83e5 | inactive
CG4716 (GeneID 36471) | 2 | 2.74e5 | 2.99e5 | 6.87e5 | 7.43e5 | inactive
